No constants are given. Whether binding was seen depends on the method and setting. In cells and extracts the contact can be indirect. Some entries that bind do so weakly or less than the wild type.
Target: T1, short RARS (arginyl-tRNA synthetase, short isoform), overexpressed in HEK293T (UniProt P54136)
T1 sequence: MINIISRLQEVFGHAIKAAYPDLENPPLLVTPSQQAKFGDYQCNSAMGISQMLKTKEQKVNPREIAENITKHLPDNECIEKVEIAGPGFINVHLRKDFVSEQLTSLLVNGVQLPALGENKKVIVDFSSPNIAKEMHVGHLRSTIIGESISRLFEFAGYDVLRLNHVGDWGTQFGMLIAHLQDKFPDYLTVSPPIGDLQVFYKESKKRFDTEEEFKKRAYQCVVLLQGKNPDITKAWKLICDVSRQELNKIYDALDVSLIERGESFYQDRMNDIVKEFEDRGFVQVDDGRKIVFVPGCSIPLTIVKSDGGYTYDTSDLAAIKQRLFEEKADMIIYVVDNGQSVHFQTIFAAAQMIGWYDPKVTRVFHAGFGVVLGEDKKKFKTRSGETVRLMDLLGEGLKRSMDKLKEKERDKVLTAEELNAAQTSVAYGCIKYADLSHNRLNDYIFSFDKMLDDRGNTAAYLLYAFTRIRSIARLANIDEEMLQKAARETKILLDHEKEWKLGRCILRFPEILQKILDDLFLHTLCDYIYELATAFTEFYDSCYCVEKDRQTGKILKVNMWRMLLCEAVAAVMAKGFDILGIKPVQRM
Experiment: co-IP; anti-RARS antibody (orb247357 Biorbyt) and Protein A agarose from lysates of HEK293T cells transfected with the long or the short RARS; lysis buffer 50 mM Tris-HCl pH 7.5, 150 mM NaCl, 0.1% Triton X-100; room temperature; blot with ATE1 antibodies

Chains of the proteins cited; added tags and fusions are not shown.
UniProt O95260: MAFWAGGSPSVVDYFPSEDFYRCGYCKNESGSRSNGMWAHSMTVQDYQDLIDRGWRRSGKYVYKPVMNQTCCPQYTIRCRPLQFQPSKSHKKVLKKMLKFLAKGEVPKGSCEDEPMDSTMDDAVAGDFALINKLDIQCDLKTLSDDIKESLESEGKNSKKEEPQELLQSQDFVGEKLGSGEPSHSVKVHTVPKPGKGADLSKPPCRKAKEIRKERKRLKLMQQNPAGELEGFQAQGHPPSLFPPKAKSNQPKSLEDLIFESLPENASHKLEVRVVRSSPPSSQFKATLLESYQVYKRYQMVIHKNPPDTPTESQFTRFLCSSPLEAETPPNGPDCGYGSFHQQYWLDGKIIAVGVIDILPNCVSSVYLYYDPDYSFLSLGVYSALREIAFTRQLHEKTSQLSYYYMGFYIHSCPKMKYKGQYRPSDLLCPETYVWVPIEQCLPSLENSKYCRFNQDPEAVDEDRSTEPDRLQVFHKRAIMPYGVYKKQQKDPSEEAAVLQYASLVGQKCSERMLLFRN

- binding: binds weakly
Substance: arginyltransferase ATE1 (from UniProt O95260 1-518) (enzyme)
